Some of the results follow.
Experiments:
Test in all cases: log2 fold change, soluble protein after heating vs DMSO (PISA); higher = thermal stabilisation; K562 lysate, 10 uM; active = over 0.2 and 3.5 SD of the protein, either way, in both replicates (recomputed)
[1] = compound: CN1CC[C@H](c2c(O)cc(O)c3c(=O)cc(-c4ccccc4Cl)oc23)[C@H](O)C1 [alvocidib]
Outline: (§1)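 A 30 min treatment with 10 μM compound was applied to crude K562 extract at 1 mg/mL protein in PBS pH 7.4 with 1 mM MgCl2. Heating for 3 min spanned 48°C-58°C, after which aliquots were pooled, adjusted to 0.5% NP-40 at 4°C and spun at 21,000xg for 90 min. TMTpro 16plex LC-MS/MS of the supernatant, with channel sums equalised, gave values recorded as log-two fold change in thermal stability against solvent controls, from duplicates.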

Chains of the proteins cited; added tags and fusions are not shown. Lines headed by an entry give the natural chain unless they say otherwise; changes in a name come on top.
UniProt P11441: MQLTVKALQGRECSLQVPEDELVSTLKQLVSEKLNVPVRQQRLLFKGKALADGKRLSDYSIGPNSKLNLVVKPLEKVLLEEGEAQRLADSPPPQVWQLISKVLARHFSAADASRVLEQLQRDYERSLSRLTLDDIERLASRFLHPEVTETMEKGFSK
UniProt Q3B726, whole entry, looked up: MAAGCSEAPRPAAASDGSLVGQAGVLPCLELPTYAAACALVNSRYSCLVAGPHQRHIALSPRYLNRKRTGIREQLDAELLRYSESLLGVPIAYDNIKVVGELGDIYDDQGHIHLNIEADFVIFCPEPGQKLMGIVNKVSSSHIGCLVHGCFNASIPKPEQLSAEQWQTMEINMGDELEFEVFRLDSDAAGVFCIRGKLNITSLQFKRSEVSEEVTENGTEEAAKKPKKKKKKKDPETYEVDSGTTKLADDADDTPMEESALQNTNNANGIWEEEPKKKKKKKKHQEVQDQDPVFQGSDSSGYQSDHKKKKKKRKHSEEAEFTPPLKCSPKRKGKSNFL
UniProt Q5T4S7, whole entry, looked up: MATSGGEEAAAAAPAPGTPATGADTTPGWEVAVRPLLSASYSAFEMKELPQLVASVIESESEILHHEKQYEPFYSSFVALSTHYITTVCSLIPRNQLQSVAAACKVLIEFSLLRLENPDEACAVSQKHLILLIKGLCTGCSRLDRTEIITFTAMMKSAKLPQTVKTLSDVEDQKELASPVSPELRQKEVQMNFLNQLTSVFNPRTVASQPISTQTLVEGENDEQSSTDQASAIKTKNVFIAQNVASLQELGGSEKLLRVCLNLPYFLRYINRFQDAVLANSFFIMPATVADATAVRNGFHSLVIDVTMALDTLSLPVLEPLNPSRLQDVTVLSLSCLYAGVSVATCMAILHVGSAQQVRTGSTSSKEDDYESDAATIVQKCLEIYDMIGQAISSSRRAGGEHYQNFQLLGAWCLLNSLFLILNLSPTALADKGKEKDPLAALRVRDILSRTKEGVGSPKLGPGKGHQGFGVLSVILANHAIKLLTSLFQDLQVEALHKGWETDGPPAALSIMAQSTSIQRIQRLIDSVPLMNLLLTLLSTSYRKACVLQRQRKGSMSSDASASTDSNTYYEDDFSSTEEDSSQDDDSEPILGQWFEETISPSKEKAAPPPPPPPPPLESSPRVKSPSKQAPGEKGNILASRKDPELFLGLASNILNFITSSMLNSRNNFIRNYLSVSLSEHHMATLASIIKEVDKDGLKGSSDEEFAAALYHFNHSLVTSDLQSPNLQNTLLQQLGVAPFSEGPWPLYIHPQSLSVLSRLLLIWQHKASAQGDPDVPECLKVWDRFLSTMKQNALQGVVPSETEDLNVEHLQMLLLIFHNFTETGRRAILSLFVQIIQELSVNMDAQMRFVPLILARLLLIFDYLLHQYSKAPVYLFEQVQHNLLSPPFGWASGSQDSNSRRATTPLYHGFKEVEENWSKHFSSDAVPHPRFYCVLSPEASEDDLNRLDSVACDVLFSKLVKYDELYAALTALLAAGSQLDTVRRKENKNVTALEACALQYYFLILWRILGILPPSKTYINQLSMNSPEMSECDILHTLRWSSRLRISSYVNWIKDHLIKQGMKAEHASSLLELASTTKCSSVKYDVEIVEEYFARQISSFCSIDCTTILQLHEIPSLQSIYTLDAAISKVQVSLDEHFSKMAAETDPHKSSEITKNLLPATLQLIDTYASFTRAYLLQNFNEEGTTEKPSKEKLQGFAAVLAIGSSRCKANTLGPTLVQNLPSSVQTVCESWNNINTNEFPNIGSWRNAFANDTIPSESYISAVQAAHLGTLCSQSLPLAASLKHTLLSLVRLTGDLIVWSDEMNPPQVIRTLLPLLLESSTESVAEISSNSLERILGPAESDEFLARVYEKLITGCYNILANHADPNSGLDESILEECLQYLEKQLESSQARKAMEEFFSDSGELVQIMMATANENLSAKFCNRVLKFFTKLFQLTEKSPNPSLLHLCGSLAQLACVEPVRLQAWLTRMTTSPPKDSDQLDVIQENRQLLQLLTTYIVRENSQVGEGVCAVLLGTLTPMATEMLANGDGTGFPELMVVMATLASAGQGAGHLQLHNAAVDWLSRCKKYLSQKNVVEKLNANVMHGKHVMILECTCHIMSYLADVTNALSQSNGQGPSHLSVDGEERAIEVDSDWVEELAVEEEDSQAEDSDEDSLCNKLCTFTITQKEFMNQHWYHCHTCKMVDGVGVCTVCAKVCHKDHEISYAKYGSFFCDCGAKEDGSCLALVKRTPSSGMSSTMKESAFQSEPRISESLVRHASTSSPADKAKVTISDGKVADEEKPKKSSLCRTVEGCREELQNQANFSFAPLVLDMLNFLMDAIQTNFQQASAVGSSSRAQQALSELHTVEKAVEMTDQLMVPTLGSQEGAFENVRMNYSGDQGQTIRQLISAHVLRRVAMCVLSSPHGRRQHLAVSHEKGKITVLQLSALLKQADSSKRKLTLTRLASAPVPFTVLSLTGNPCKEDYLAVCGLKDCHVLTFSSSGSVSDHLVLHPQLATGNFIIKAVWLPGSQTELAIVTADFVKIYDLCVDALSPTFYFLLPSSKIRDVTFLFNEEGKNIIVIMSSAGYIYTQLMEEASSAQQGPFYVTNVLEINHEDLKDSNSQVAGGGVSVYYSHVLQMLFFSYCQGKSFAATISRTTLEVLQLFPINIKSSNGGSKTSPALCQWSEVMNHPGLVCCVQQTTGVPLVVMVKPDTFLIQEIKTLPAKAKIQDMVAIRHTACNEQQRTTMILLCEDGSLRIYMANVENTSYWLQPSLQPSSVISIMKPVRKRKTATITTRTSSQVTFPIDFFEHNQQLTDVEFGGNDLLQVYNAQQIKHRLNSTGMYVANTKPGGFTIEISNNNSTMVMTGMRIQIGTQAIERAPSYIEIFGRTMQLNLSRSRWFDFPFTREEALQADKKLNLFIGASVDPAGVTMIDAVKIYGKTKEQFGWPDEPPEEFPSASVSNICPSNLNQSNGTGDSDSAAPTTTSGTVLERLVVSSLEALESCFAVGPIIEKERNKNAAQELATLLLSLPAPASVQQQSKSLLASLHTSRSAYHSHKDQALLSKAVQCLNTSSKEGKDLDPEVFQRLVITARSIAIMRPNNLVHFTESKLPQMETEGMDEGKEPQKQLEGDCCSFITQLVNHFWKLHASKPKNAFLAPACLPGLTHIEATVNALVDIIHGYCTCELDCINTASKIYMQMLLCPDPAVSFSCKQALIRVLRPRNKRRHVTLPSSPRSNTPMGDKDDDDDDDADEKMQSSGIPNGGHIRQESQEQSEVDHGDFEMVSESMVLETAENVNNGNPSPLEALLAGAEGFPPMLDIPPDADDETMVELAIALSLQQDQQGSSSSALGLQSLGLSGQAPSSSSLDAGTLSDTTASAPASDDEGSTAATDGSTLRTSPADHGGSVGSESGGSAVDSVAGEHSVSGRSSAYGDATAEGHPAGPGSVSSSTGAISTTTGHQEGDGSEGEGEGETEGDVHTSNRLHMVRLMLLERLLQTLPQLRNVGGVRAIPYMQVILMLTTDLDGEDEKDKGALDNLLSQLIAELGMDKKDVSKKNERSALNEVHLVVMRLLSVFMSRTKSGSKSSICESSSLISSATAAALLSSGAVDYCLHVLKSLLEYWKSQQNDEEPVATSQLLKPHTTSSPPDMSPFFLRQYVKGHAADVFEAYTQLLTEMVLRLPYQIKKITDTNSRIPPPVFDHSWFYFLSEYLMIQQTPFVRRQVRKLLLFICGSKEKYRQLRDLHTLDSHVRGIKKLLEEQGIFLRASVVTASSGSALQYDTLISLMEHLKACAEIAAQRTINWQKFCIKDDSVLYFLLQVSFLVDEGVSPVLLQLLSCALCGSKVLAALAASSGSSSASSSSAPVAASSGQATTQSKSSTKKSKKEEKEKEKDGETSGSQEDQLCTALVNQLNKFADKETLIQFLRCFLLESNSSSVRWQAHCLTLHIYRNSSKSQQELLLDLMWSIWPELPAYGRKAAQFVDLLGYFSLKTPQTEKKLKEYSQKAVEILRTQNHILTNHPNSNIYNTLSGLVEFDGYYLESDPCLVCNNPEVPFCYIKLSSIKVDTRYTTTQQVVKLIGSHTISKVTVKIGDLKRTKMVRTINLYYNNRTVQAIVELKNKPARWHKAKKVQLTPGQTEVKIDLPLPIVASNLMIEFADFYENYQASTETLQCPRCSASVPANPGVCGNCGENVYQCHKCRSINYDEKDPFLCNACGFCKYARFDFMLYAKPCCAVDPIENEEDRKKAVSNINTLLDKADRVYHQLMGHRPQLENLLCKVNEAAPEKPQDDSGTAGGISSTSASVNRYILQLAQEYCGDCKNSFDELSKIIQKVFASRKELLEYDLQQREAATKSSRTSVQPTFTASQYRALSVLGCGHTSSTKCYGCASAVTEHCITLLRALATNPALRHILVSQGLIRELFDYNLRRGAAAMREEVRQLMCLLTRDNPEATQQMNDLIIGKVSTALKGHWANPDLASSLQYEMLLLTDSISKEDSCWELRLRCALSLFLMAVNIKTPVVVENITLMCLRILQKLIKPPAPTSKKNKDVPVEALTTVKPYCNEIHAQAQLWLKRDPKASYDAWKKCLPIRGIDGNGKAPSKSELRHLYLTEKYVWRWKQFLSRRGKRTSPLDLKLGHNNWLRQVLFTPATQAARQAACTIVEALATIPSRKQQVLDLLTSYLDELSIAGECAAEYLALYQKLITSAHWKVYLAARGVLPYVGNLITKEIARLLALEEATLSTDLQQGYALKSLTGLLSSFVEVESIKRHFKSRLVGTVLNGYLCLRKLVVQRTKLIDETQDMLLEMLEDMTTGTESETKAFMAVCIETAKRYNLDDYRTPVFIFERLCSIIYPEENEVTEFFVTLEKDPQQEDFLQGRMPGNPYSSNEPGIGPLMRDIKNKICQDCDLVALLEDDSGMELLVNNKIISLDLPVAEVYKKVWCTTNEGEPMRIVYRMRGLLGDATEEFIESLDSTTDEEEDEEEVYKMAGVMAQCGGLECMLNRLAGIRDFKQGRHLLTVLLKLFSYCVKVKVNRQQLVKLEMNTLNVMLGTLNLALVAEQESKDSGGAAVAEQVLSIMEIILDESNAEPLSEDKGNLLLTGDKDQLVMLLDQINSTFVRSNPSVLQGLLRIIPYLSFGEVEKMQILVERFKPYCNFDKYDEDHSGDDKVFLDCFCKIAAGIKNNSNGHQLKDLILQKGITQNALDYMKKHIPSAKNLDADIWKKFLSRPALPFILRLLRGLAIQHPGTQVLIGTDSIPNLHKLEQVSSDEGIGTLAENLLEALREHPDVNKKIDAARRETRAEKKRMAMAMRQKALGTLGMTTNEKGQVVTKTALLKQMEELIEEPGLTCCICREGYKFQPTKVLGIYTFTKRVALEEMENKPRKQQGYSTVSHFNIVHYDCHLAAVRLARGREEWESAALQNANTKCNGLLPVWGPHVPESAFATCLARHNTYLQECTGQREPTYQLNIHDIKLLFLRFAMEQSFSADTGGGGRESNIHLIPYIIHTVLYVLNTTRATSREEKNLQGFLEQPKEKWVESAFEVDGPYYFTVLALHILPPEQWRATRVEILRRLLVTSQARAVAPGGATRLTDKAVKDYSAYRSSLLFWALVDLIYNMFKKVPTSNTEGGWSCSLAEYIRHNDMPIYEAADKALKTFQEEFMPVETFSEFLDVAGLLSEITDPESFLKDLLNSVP
UniProt Q9P2K2: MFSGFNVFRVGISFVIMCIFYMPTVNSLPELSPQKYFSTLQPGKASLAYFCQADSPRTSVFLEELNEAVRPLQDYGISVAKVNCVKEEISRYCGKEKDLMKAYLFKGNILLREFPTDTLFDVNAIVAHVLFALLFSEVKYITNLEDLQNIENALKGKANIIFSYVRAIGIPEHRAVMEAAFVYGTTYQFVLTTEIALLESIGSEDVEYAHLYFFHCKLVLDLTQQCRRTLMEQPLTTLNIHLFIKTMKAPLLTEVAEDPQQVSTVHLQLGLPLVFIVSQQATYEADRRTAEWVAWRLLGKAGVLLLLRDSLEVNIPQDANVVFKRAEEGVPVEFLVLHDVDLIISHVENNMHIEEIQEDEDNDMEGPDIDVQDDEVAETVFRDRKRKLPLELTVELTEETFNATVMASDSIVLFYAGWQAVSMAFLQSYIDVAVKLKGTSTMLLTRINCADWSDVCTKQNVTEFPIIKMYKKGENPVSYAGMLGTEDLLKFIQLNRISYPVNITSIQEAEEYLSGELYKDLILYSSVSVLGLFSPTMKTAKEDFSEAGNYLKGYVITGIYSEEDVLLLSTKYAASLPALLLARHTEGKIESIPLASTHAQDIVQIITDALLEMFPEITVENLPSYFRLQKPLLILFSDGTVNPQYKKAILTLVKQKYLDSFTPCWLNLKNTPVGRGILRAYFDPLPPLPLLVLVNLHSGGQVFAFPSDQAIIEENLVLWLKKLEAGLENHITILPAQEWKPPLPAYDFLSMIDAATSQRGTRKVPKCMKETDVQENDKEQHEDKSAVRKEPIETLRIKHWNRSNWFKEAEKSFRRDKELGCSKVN

[2] = compound: CN1CCc2c(c3ccccc3n2Cc2ccc(C(=O)NO)cc2)C1 [Tubastatin A]
Outline: as §1

[3] = compound: CNC(=O)C1=CC=CC=C1NC2=NC(=NC=C2Cl)NC3=C(C=C(C=C3)N4CCOCC4)OC
Outline: as §1

[4] = compound: CNC(=O)c1ccc(Nc2ncc(C(F)(F)F)c(NCc3nccnc3N(C)S(C)(=O)=O)n2)cc1 [defactinib]
Outline: as §1

[5] = compound: CNc1nc(-c2ccc3c(N)n[nH]c3c2)cc(N2C[C@@H](C(=O)NC3CCCCC3)CC[C@H]2C)n1
Outline: as §1

[6] = compound: COC(=O)N[C@@H](C)CNc1nccc(-c2cn(C(C)C)nc2-c2cc(Cl)cc(NS(C)(=O)=O)c2F)n1 [encorafenib]
Outline: as §1

[7] = compound: COC(=O)[C@H](CCSC)NC(=O)C1=C(C=C(C=C1)NC[C@H](CS)N)C2=CC=CC=C2
Outline: as §1

[8] = compound: COc1cc(Nc2ncc3c(n2)-c2ccc(Cl)cc2C(c2c(F)cccc2OC)=NC3)ccc1C(=O)O [alisertib]
Outline: as §1

[9] = compound: COc1cc2nc(-c3cc(F)ccc3O)nc(N[C@@H]3CNC[C@H]3C(C)(C)O)c2cc1OC
Outline: as §1

[10] = compound: COc1cc2ncnc(Nc3ccc(F)c(Cl)c3)c2cc1OCCCN1CCOCC1 [gefitinib]
Outline: as §1

[11] = compound: CS(=O)(=O)CCNCc1ccc(-c2ccc3ncnc(Nc4ccc(OCc5cccc(F)c5)c(Cl)c4)c3c2)o1 [lapatinib]
Outline: as §1

[12] = compound: CS(=O)(=O)N1CCN(Cc2cc3nc(-c4cccc5[nH]ncc45)nc(N4CCOCC4)c3s2)CC1 [pictilisib]
Outline: as §1

[13] = compound: C[C@@H](Oc1cc(-c2cnn(C3CCNCC3)c2)cnc1N)c1c(Cl)ccc(F)c1Cl [crizotinib]
Outline: as §1

[14] = compound: C[C@H](C1=CC=C(C=C1)C(=O)NC2=C3C=CNC3=NC=C2)N
Outline: as §1

[15] = compound: C[C@H](Nc1ncnc2nc[nH]c12)c1cc2cccc(Cl)c2c(=O)n1-c1ccccc1 [duvelisib]
Outline: as §1

[16] = compound: Cc1cc(Nc2cc(CN3CCOCC3)c3nc(C)c(Cc4ccc(Cl)cc4F)n3n2)n[nH]1 [gandotinib]
Outline: as §1

[17] = compound: Cc1cc(Nc2cc(N3CCN(C)CC3)nc(Sc3ccc(NC(=O)C4CC4)cc3)n2)n[nH]1 [tozasertib]
Outline: as §1

[18] = compound: Cc1ccc(-n2nc(C(C)(C)C)cc2NC(=O)Nc2ccc(OCCN3CCOCC3)c3ccccc23)cc1 [doramapimod]
Outline: as §1

[19] = compound: Cc1ccc(NC(=O)c2ccc(CN3CC[C@H](N(C)C)C3)c(C(F)(F)F)c2)cc1Nc1nccc(-c2cncnc2)n1 [bafetinib]
Outline: as §1

[20] = compound: Cc1cccc(CC(=O)N2CCc3c2ccc(-c2cn(C)c4ncnc(N)c24)c3F)n1
Outline: as §1

| Target | log2 fold change [1] | log2 fold change [2] | log2 fold change [3] | log2 fold change [4] | log2 fold change [5] | log2 fold change [6] | log2 fold change [7] | log2 fold change [8] | log2 fold change [9] | log2 fold change [10] | log2 fold change [11] | log2 fold change [12] | log2 fold change [13] | log2 fold change [14] | log2 fold change [15] | log2 fold change [16] | log2 fold change [17] | log2 fold change [18] | log2 fold change [19] | log2 fold change [20] |
| --- | --- | --- | --- | --- | --- | --- | --- | --- | --- | --- | --- | --- | --- | --- | --- | --- | --- | --- | --- | --- |
| UBE2M (UniProt P61081) | inactive: -0.025 | inactive: 0.038 | inactive: 0.002 | inactive: -0.012 | inactive: 0.024 | inactive: -0.003 | inactive: -0.071 | inactive: 0.023 | inactive: -0.005 | inactive: -0.046 | inactive: -0.014 | inactive: 0.012 | inactive: -0.03 | inactive: 0.011 | inactive: 0.017 | inactive: -0.001 | inactive: 0.013 | inactive: 0.026 | inactive: -0.04 | inactive: -0.019 |
| UBE2H (UniProt P62256) | inactive: 0.11 | inactive: 0.076 | inactive: -0.03 | inactive: 0.025 | inactive: -0.061 | inactive: 0.001 | inactive: -0.01 | inactive: 0.004 | inactive: -0.029 | inactive: 0.044 | inactive: 0.002 | inactive: -0.022 | inactive: 0.011 | inactive: 0.174 | inactive: 0.016 | inactive: -0.172 | inactive: 0.024 | inactive: 0.003 | inactive: 0.009 | inactive: -0.188 |
| UBP1 (UniProt Q9NZI7) | inactive: 0.049 | inactive: -0.121 | inactive: 0.058 | inactive: 0.077 | inactive: 0.002 | inactive: 0.115 | inactive: 0.019 | inactive: 0.059 | inactive: -0.011 | inactive: -0.073 | inactive: 0.049 | inactive: -0.004 | inactive: -0.202 | inactive: 0.206 | inactive: -0.025 | inactive: -0.01 | inactive: -0.043 | inactive: 0.15 | inactive: -0.029 | inactive: -0.124 |
| U2SURP (UniProt O15042) | inactive: -0.002 | inactive: -0.101 | inactive: 0.014 | inactive: 0.008 | inactive: -0.003 | inactive: 0.004 | inactive: 0.051 | inactive: 0 | inactive: -0.003 | inactive: 0.018 | inactive: 0.021 | inactive: -0.001 | inactive: 0.037 | inactive: 0.038 | inactive: -0.038 | inactive: -0.057 | inactive: -0.005 | inactive: -0.032 | inactive: 0.017 | inactive: -0.004 |
| UBQLN2 (UniProt Q9UHD9) | inactive: -0.018 | inactive: 0.015 | inactive: -0.014 | inactive: 0.058 | inactive: 0.069 | inactive: 0.008 | inactive: -0.033 | inactive: -0.052 | inactive: -0.015 | inactive: -0.13 | inactive: 0.051 | inactive: -0.008 | inactive: 0.029 | inactive: 0 | inactive: 0.009 | inactive: -0.003 | inactive: -0.028 | inactive: -0.053 | inactive: 0.006 | inactive: 0.046 |
| UBL4A (UniProt P11441) | inactive: 0.016 | inactive: -0.039 | inactive: -0.015 | inactive: 0.006 | inactive: -0.008 | inactive: 0.046 | inactive: -0.043 | inactive: 0.018 | inactive: -0.059 | inactive: -0.033 | inactive: -0.003 | inactive: -0.057 | inactive: 0.112 | active: 0.253 | inactive: 0.007 | inactive: -0.157 | inactive: 0.076 | inactive: -0.029 | inactive: -0.044 | inactive: -0.06 |
| TWISTNB (UniProt Q3B726) | inactive: 0.042 | inactive: -0.035 | inactive: 0.002 | inactive: -0.021 | inactive: 0.028 | inactive: 0.067 | inactive: 0.053 | inactive: -0.001 | inactive: 0.023 | inactive: 0.042 | inactive: -0.033 | inactive: -0.007 | inactive: 0.061 | inactive: 0.069 | inactive: 0.007 | inactive: -0.029 | inactive: -0.037 | inactive: -0.104 | inactive: -0.094 | inactive: -0.013 |
| UBR4 (UniProt Q5T4S7) | inactive: 0.009 | inactive: -0.06 | inactive: 0.006 | inactive: 0.006 | inactive: -0.034 | inactive: 0.003 | inactive: 0.018 | inactive: 0.001 | inactive: 0.001 | inactive: -0.029 | inactive: -0.023 | inactive: -0.015 | inactive: -0.038 | inactive: -0.017 | inactive: -0.001 | inactive: -0.08 | inactive: 0 | inactive: 0.01 | inactive: -0.038 | inactive: 0.037 |
| UBA6 | inactive: 0.003 | inactive: -0.081 | inactive: 0.015 | inactive: 0.024 | inactive: -0.021 | inactive: 0.003 | inactive: 0.053 | inactive: 0.002 | inactive: 0.01 | inactive: -0.005 | inactive: -0.011 | inactive: -0.01 | inactive: -0.023 | inactive: 0.002 | inactive: 0.011 | inactive: -0.066 | inactive: -0.013 | inactive: -0.001 | inactive: -0.003 | inactive: -0.009 |
| TXNRD1 (UniProt Q16881) | inactive: -0.027 | inactive: 0.054 | inactive: -0.022 | inactive: -0.006 | inactive: 0.034 | inactive: -0.02 | inactive: -0.011 | inactive: 0.001 | inactive: 0.007 | inactive: 0.008 | inactive: -0.002 | inactive: 0.009 | inactive: -0.009 | inactive: -0.084 | inactive: -0.018 | inactive: 0.025 | inactive: 0.008 | inactive: -0.003 | inactive: 0.032 | inactive: 0.007 |
| TWNK (UniProt Q96RR1) | inactive: -0.012 | inactive: 0.344 | inactive: -0.063 | inactive: -0.076 | inactive: 0.351 | inactive: -0.032 | inactive: 0.041 | inactive: 0.01 |  | inactive: -0.043 |  | inactive: -0.037 | inactive: -0.204 | inactive: 0.03 | inactive: 0.083 | inactive: -0.574 | inactive: -0.042 | inactive: 0.058 | inactive: -0.243 | inactive: -0.039 |
| UBLCP1 (UniProt Q8WVY7) | inactive: 0.058 | inactive: -0.039 | inactive: 0.016 | inactive: 0.035 | inactive: -0.07 | inactive: 0.026 | inactive: -0.113 | inactive: -0.045 | inactive: -0.017 | inactive: 0.002 | inactive: 0.023 | inactive: -0.041 | inactive: 0.033 | inactive: 0.113 | inactive: 0.017 | inactive: -0.083 | inactive: 0.102 | inactive: -0.006 | inactive: -0.028 | inactive: -0.057 |
| UBXN2B (UniProt Q14CS0) | inactive: -0.123 | inactive: -0.001 | inactive: -0.046 | inactive: 0.07 | inactive: -0.018 | inactive: -0.037 | inactive: 0.069 | inactive: 0.174 | inactive: -0.114 | inactive: 0.008 | inactive: -0.226 | inactive: -0.036 |  | inactive: -0.01 | inactive: 0.07 | inactive: 0.213 | inactive: 0.027 |  | inactive: 0.003 | inactive: -0.005 |
| UCK1 isoform 4 (UniProt Q9HA47) | inactive: 0.033 | inactive: -0.129 | inactive: 0.041 | inactive: -0.006 | inactive: 0.077 | inactive: -0.01 | inactive: -0.083 | inactive: -0.034 | inactive: -0.04 | inactive: -0.02 | inactive: 0.082 | inactive: -0.013 | inactive: -0.002 | inactive: -0.073 | inactive: 0.063 | inactive: -0.02 | inactive: -0.03 | inactive: -0.033 | inactive: -0.012 | inactive: 0.061 |
| TXNDC16 (UniProt Q9P2K2) | inactive: -0.017 | inactive: -0.08 | inactive: 0.164 | inactive: -0.038 | inactive: -0.086 |  |  |  | inactive: -0.062 |  | inactive: 0.118 |  | inactive: -0.02 | inactive: -0.008 | inactive: -0.237 | inactive: -0.059 |  | inactive: 0.023 |  | inactive: -0.122 |
| UBE2A (UniProt P49459) | inactive: 0.065 | inactive: 0.056 | inactive: 0.016 | inactive: 0.026 | inactive: 0.027 | inactive: -0.038 | inactive: -0.015 | inactive: -0.024 | inactive: 0.007 | inactive: -0.065 | inactive: -0.028 | inactive: -0.038 | inactive: -0.009 | inactive: 0.126 | inactive: 0.038 | inactive: -0.09 | inactive: 0.044 | inactive: -0.037 | inactive: 0.044 | inactive: -0.149 |
| UCHL5 (UniProt Q5LJA9) | inactive: 0.049 | inactive: -0.153 | inactive: 0.005 | inactive: 0.015 | inactive: -0.156 | inactive: 0.007 | inactive: 0.091 |  | inactive: -0.011 |  | inactive: 0.027 | inactive: 0.001 | inactive: -0.036 | inactive: -0.07 | inactive: 0.082 | inactive: -0.074 | inactive: 0.003 | inactive: 0.067 | inactive: -0.07 | inactive: -0.156 |

Some values from above.
Entry of U2SURP (UniProt O15042) under log2 fold change [8]: inactive: 0
Entry of TWNK (UniProt Q96RR1) under log2 fold change [15]: inactive: 0.083

— the supplement of paper PMC10849652
